PMC11726933
No constants are given. Whether binding was seen depends on the method and setting. Binding seen in cells or lysates may run through a third protein. Some results given as binding are weak or reduced against the parent protein; the word gives no strength.

Target: T1, YTHDF2 (human (endogenous in HeLa and MDA-MB-231)) (UniProt Q9Y5A9)
T1 sequence: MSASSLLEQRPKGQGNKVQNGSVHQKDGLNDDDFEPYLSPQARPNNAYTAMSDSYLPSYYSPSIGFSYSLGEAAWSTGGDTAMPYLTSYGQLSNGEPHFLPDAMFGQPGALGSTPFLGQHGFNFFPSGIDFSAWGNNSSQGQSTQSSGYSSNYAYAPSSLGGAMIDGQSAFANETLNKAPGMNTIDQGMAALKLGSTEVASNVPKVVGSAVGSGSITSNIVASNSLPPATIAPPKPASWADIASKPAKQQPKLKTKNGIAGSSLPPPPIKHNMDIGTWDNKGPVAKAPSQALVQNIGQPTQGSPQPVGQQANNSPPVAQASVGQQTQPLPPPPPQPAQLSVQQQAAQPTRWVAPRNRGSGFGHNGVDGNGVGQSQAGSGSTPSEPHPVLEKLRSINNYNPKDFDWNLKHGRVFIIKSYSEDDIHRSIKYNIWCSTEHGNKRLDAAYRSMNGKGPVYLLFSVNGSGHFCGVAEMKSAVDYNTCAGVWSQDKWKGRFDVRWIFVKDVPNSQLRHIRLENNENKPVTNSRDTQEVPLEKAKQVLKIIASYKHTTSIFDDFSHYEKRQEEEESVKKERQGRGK
Test: co-IP; protein lysates of HeLa and MDA-MB-231 cells immunoprecipitated with YTHDF2 antibodies; Dis3L2 checked in the precipitate

binding: binds
B1: 3′-5′ exoribonuclease Dis3L2 (enzyme, UniProt Q8IYB7 1-885)
chain: MSHPDYRMNLRPLGTPRGVSAVAGPHDIGASPGDKKSKNRSTRGKKKSIFETYMSKEDVSEGLKRGTLIQGVLRINPKKFHEAFIPSPDGDRDIFIDGVVARNRALNGDLVVVKLLPEEHWKVVKPESNDKETEAAYESDIPEELCGHHLPQQSLKSYNDSPDVIVEAQFDGSDSEDGHGITQNVLVDGVKKLSVCVSEKGREDGDAPVTKDETTCISQDTRALSEKSLQRSAKVVYILEKKHSRAATGFLKLLADKNSELFRKYALFSPSDHRVPRIYVPLKDCPQDFVARPKDYANTLFICRIVDWKEDCNFALGQLAKSLGQAGEIEPETEGILTEYGVDFSDFSSEVLECLPQGLPWTIPPEEFSKRRDLRKDCIFTIDPSTARDLDDALSCKPLADGNFKVGVHIADVSYFVPEGSDLDKVAAERATSVYLVQKVVPMLPRLLCEELCSLNPMSDKLTFSVIWTLTPEGKILDEWFGRTIIRSCTKLSYEHAQSMIESPTEKIPAKELPPISPEHSSEEVHQAVLNLHGIAKQLRQQRFVDGALRLDQLKLAFTLDHETGLPQGCHIYEYRESNKLVEEFMLLANMAVAHKIHRAFPEQALLRRHPPPQTRMLSDLVEFCDQMGLPVDFSSAGALNKSLTQTFGDDKYSLARKEVLTNMCSRPMQMALYFCSGLLQDPAQFRHYALNVPLYTHFTSPIRRFADVLVHRLLAAALGYRERLDMAPDTLQKQADHCNDRRMASKRVQELSTSLFFAVLVKESGPLESEAMVMGILKQAFDVLVLRYGVQKRIYCNALALRSHHFQKVGKKPELTLVWEPEDMEQEPAQQVITIFSLVEVVLQAESTALKYSAILKRPGTQGHLGPEKEEEESDGEPEDSSTS
